The record followed here is the supplement of paper PMC6411743.

Protein sequences, listed by entry. Tags and fused reporters are not part of them. Lines headed by an entry give the natural chain unless they say otherwise; changes in a name come on top.
UniProt Q9UKU0: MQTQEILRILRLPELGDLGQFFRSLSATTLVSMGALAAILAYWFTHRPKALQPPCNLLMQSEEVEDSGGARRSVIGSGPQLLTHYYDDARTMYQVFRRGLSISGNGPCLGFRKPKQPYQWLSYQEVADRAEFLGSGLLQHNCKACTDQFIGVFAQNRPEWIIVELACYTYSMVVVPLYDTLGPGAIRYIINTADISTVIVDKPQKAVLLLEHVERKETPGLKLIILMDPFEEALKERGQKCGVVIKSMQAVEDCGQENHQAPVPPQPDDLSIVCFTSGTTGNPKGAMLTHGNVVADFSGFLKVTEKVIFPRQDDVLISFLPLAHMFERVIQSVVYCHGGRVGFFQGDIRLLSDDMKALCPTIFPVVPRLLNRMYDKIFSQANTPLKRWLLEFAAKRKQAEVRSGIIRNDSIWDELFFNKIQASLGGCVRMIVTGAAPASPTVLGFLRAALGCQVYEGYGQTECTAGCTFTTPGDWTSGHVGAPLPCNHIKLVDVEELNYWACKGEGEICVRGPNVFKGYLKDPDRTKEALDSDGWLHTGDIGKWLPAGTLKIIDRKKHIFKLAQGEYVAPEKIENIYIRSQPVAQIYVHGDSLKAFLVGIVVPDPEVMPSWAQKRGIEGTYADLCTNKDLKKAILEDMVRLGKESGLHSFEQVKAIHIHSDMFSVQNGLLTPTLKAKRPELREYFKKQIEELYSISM
UniProt Q6ZU35: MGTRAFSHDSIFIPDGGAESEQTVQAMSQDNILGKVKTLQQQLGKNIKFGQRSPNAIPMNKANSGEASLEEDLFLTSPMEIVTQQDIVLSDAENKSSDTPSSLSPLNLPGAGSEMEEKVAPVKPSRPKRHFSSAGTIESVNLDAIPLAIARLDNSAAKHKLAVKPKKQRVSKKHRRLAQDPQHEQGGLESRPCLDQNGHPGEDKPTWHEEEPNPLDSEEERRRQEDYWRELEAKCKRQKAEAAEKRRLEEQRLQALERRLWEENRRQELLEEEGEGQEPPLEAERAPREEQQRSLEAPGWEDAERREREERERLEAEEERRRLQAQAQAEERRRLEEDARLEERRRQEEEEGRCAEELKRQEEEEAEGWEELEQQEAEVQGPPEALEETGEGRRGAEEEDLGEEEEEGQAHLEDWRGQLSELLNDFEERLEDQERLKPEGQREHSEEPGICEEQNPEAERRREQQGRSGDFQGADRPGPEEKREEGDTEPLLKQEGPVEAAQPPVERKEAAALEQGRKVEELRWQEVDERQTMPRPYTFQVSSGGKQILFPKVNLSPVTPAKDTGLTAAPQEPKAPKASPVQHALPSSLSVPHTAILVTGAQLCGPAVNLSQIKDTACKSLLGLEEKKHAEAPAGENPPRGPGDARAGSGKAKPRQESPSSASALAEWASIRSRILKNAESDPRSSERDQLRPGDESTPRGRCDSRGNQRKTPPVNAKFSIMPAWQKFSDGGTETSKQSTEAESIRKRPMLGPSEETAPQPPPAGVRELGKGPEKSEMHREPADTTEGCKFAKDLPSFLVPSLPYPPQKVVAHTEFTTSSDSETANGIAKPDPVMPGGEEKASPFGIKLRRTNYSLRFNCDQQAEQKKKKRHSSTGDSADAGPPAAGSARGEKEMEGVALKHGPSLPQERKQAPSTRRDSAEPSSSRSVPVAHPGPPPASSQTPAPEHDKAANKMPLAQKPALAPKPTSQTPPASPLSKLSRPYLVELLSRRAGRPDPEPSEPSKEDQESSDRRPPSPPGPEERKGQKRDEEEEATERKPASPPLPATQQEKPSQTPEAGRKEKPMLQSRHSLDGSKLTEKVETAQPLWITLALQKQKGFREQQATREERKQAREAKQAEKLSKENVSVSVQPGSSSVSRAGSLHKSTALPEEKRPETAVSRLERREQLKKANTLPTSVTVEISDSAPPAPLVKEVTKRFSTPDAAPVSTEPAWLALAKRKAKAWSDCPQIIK
UniProt O75326: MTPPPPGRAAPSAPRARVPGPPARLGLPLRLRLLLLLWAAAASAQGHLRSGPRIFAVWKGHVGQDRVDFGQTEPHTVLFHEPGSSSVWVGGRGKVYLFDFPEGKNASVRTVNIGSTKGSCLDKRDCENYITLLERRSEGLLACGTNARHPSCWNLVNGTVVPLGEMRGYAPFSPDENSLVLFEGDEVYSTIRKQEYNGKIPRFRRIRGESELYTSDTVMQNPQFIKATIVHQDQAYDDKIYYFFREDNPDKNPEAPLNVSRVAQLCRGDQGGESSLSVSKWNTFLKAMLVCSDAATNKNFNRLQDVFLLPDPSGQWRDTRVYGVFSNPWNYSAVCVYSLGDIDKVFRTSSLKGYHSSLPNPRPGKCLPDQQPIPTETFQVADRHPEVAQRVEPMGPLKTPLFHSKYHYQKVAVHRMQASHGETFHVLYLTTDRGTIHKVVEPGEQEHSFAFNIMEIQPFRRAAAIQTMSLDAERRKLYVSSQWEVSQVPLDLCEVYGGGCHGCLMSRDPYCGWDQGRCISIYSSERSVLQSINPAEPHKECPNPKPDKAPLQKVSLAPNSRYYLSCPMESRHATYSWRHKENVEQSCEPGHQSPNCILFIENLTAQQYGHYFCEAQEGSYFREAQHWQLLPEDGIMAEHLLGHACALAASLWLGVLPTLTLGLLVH
UniProt Q9NZN5: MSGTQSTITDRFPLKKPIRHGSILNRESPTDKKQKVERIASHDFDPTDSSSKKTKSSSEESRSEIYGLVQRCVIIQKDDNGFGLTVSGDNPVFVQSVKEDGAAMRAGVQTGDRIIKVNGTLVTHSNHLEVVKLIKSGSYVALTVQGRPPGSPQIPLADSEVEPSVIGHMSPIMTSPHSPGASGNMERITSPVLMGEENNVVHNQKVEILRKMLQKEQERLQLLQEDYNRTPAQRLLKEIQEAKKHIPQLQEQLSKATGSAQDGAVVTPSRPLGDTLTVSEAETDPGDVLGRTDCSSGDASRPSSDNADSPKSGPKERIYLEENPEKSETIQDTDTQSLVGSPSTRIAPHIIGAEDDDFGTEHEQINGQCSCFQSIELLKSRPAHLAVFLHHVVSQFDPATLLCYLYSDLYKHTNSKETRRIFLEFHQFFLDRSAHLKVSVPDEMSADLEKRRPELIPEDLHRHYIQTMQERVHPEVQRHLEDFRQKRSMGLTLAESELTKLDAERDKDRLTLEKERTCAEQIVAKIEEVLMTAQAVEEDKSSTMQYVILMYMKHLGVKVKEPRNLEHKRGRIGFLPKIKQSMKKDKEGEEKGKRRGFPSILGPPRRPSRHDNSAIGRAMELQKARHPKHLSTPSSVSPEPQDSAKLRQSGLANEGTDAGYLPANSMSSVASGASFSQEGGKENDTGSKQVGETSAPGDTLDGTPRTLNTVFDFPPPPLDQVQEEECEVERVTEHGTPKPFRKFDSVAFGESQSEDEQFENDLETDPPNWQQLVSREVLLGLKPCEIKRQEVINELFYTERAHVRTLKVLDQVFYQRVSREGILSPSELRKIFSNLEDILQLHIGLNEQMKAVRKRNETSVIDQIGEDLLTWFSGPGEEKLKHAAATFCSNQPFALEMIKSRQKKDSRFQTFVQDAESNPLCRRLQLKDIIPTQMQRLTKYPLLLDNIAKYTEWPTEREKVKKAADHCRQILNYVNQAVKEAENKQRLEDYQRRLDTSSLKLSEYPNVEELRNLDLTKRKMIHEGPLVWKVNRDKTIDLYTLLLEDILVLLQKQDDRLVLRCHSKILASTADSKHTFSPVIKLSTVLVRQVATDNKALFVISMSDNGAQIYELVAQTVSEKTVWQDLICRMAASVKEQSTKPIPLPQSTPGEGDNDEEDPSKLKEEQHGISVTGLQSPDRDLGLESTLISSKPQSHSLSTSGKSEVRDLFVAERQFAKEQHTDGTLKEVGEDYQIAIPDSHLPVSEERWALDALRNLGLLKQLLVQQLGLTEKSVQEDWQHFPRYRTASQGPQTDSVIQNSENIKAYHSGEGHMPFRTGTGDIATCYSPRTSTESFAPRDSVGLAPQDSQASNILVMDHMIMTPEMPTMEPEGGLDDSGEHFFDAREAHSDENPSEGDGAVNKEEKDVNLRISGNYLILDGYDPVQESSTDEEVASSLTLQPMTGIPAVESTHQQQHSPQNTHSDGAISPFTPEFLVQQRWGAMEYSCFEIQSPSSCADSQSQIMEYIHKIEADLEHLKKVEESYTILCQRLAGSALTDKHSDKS
UniProt P17987, whole entry: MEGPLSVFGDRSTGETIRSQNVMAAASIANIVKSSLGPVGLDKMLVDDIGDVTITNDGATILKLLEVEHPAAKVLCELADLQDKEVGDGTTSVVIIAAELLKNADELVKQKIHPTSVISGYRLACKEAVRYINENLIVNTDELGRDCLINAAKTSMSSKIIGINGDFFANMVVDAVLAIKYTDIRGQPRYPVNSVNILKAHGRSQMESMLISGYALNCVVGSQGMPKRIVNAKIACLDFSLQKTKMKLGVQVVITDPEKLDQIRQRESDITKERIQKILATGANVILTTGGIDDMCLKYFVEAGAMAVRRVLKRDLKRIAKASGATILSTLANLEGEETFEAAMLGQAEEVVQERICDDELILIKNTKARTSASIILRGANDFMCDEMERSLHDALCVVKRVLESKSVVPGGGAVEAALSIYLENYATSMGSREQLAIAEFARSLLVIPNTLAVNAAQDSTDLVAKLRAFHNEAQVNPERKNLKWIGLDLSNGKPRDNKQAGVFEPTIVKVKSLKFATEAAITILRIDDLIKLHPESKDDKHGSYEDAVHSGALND
UniProt Q99700, whole entry: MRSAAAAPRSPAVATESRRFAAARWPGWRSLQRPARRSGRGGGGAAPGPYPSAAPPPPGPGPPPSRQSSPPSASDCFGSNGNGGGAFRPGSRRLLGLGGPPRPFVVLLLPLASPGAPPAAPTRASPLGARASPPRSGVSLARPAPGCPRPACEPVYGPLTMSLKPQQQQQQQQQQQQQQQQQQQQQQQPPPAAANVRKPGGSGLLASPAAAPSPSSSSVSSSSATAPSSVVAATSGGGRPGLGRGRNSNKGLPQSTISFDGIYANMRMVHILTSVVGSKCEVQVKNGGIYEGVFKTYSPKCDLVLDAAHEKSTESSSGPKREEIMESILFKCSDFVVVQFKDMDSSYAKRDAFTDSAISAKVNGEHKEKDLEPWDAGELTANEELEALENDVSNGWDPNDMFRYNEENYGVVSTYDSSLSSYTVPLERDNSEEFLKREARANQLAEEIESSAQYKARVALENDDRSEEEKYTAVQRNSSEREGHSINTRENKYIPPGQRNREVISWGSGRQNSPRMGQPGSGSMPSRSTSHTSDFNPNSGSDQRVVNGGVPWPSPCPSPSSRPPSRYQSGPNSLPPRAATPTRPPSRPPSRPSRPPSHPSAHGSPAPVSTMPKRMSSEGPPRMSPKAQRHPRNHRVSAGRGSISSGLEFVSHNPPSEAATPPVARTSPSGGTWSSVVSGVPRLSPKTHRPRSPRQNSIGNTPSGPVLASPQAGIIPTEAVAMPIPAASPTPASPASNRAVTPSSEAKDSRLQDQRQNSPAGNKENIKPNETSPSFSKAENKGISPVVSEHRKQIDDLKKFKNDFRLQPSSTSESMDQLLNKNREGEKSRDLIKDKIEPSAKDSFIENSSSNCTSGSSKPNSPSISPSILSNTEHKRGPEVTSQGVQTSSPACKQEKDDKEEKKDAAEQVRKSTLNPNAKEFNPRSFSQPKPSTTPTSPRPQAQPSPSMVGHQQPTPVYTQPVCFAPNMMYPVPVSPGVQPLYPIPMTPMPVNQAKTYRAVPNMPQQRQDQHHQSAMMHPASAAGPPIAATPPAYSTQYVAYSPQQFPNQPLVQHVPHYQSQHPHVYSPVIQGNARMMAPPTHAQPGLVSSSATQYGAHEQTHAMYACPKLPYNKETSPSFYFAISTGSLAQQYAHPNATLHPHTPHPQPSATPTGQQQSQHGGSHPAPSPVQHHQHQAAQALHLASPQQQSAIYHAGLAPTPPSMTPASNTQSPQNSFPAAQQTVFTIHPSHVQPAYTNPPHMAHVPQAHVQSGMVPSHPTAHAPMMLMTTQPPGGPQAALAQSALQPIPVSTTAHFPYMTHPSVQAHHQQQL
UniProt Q15366, whole entry: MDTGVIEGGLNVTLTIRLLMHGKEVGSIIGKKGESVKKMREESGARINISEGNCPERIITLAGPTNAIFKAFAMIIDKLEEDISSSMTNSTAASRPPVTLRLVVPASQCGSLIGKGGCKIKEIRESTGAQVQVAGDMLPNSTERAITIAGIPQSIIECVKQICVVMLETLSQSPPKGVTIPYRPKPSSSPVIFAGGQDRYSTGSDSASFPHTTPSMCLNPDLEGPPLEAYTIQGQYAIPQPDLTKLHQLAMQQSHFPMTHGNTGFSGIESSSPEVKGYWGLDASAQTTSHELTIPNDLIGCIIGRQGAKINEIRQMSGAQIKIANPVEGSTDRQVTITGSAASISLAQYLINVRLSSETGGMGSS

± gives the standard deviation of the averaged measurements. Only a part is listed here, and it is no random draw.

Compound in the experiment: Nc1ncnc2c1ncn2[C@@H]1O[C@H](COP(=O)(O)OP(=O)(O)OP(=O)(O)O)[C@@H](O)[C@H]1O [adenosine triphosphate]
Kind of experiment: NP40-soluble protein abundance relative to vehicle (solubility fold change) (ratio); higher = more soluble protein in presence of ATP. In a few lines: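 Data come from three independent experiments in which Dounce-homogenised Jurkat crude lysate was treated at eight concentrations from 0.1 to 10 mM. Treatment ran 10 min at room temperature and then 3 min at 37 °C, after which 0.8% NP40 and benzonase were added for 60 min at 4 °C before ultracentrifugation. The supernatant underwent TMT labelling and LC-MS/MS, and vsn-normalised intensities were expressed as fold change against the detergent-processed vehicle in each replicate.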

Consider “E7ERD7 and related entries (UniProt Q9UKU0)”, for which the NP40-soluble protein abundance (concentration: 1mM) was 1.02 ± 0.041; the NP40-soluble protein abundance (concentration: 2mM) is 1.04 ± 0.014; the NP40-soluble protein abundance (concentration: 4mM) worked out at 1.08 ± 0.05; the NP40-soluble protein abundance (concentration: 6mM) is 1.01 ± 0.095; the NP40-soluble protein abundance (concentration: 8mM) came to 1.08 ± 0.1; the NP40-soluble protein abundance (concentration: 10mM) turned out to be 1.02 ± 0.023.
As to “E9PGT3 and related entries (UniProt Q15418)”, the NP40-soluble protein abundance was 1.04 ± 0.08 (concentration: 1mM); 1.01 ± 0.073 (concentration: 2mM); 0.985 ± 0.069 (concentration: 4mM); 0.953 ± 0.11 (concentration: 6mM); 1.01 ± 0.066 (concentration: 8mM); 0.986 ± 0.064 (concentration: 10mM).
“E7EX90 and related entries (UniProt Q14203)”: the NP40-soluble protein abundance reads like this: (concentration: 1mM) 0.974 ± 0.026; (concentration: 2mM) 0.926 ± 0.033; (concentration: 4mM) 0.901 ± 0.04; (concentration: 6mM) 0.953 ± 0.13; (concentration: 8mM) 0.929 ± 0.059; (concentration: 10mM) 0.934 ± 0.061.
As for “E9PKQ5 and related entries (UniProt Q9GZT6)”, the NP40-soluble protein abundance runs as follows: (concentration: 1mM) 0.975 ± 0.035; (concentration: 2mM) 0.9302 ± 0.0066; (concentration: 4mM) 0.921 ± 0.023; (concentration: 6mM) 0.972 ± 0.031; (concentration: 8mM) 0.927 ± 0.036; (concentration: 10mM) 0.885 ± 0.025.
In the case of “F5H269 and related entries (UniProt Q9Y485)”, the NP40-soluble protein abundance (concentration: 1mM) came to 1.01 ± 0.023; the NP40-soluble protein abundance (concentration: 2mM) was 0.9824 ± 0.0046; the NP40-soluble protein abundance (concentration: 4mM) worked out at 0.995 ± 0.096; the NP40-soluble protein abundance (concentration: 6mM) came to 1.06 ± 0.083; the NP40-soluble protein abundance (concentration: 8mM) amounted to 0.995 ± 0.066; the NP40-soluble protein abundance (concentration: 10mM) is 1.01 ± 0.073.
For the target “F5H1N7 and related entries (UniProt Q6ZU35)”, the NP40-soluble protein abundance by setting is: (concentration: 1mM) 0.936 ± 0.13; (concentration: 2mM) 0.94 ± 0.047; (concentration: 4mM) 1.05 ± 0.062; (concentration: 6mM) 1.11 ± 0.12; (concentration: 8mM) 1.05 ± 0.08; (concentration: 10mM) 1.12 ± 0.14.
Regarding “F5GYX3 and related entries (UniProt O75326)”, the NP40-soluble protein abundance turned out to be 0.874 ± 0.061 (concentration: 1mM); 0.822 ± 0.068 (concentration: 2mM); 0.85 ± 0.034 (concentration: 4mM); 0.876 ± 0.064 (concentration: 6mM); 0.838 ± 0.087 (concentration: 8mM); 0.888 ± 0.03 (concentration: 10mM).
For “E9PMR6 and related entries (UniProt Q9NZN5)”, the NP40-soluble protein abundance reads like this: (concentration: 1mM) 1.05 ± 0.092; (concentration: 2mM) 0.991 ± 0.048; (concentration: 4mM) 1.03 ± 0.071; (concentration: 6mM) 1.02 ± 0.11; (concentration: 8mM) 0.984 ± 0.092; (concentration: 10mM) 0.948 ± 0.062.
Take “F5H136 and related entries (UniProt P17987)”: the NP40-soluble protein abundance turned out to be 1.01 ± 0.024 (concentration: 1mM); 0.931 ± 0.042 (concentration: 2mM); 0.846 ± 0.016 (concentration: 4mM); 0.877 ± 0.13 (concentration: 6mM); 0.873 ± 0.061 (concentration: 8mM); 0.852 ± 0.067 (concentration: 10mM).
Take “E7ET07 and related entries (UniProt Q9NXR8)”: the NP40-soluble protein abundance was found to be 1.09 ± 0.046 (concentration: 1mM); 1.11 ± 0.092 (concentration: 2mM); 1.11 ± 0.12 (concentration: 4mM); 1.24 ± 0.11 (concentration: 6mM); 1.19 ± 0.11 (concentration: 8mM); 1.19 ± 0.13 (concentration: 10mM).
With “F8WB06 and related entries (UniProt Q99700)”, the NP40-soluble protein abundance amounted to 1 ± 0.014 (concentration: 1mM); 1.04 ± 0.026 (concentration: 2mM); 1.09 ± 0.04 (concentration: 4mM); 1.15 ± 0.07 (concentration: 6mM); 1.14 ± 0.034 (concentration: 8mM); 1.17 ± 0.041 (concentration: 10mM).
In the case of “G3V5X4 and related entries (UniProt Q8WXH0)”, the NP40-soluble protein abundance was found to be 1.01 ± 0.015 (concentration: 1mM); 0.986 ± 0.016 (concentration: 2mM); 0.97 ± 0.022 (concentration: 4mM); 0.98 ± 0.028 (concentration: 6mM); 0.97 ± 0.023 (concentration: 8mM); 0.988 ± 0.027 (concentration: 10mM).
As to “F8VRH0 and related entries (UniProt Q15366)”, the NP40-soluble protein abundance is 0.981 ± 0.024 (concentration: 1mM); 1.019 ± 0.0031 (concentration: 2mM); 0.979 ± 0.023 (concentration: 4mM); 0.992 ± 0.026 (concentration: 6mM); 0.95 ± 0.037 (concentration: 8mM); 0.954 ± 0.036 (concentration: 10mM).
Turning to “F5H1D6 and related entries (UniProt Q07864)”, the NP40-soluble protein abundance reads like this: (concentration: 1mM) 1.08 ± 0.096; (concentration: 2mM) 1.06 ± 0.088; (concentration: 4mM) 1.09 ± 0.11; (concentration: 6mM) 1.02 ± 0.1; (concentration: 8mM) 1.12 ± 0.025; (concentration: 10mM) 1.07 ± 0.11.
On to “F5H365 and related entries (UniProt Q15436)”, for which the NP40-soluble protein abundance by setting is: (concentration: 1mM) 1.05 ± 0.13; (concentration: 2mM) 1.02 ± 0.077; (concentration: 4mM) 1.03 ± 0.055; (concentration: 6mM) 0.961 ± 0.092; (concentration: 8mM) 0.987 ± 0.04; (concentration: 10mM) 1.01 ± 0.047.
